# In PubChem BioAssay AID504834 (National Center for Advancing Translational Sciences (NCATS), 2011):
# About 22,000 (6.9%) of roughly 320,000 compounds were called active. Inconclusive results, whose numbers are uncertain, are shown with a selection of clear calls. Calls follow the shape of the dose curve; as a rule, active = well fitted inhibition curve with a large enough effect; inconclusive = small, poorly fitted or top-dose-only effect, or another doubt; inactive = no such curve, though single readings can be large or run the other way. Where the call is inconclusive, the potency comes from a doubtful curve fit.
# Assay: Primary qHTS for delayed death inhibitors of the malarial parasite plastid, 96 hour incubation
# Conditions: P. falciparum luciferase reporter growth; series mostly up to 28.7 µM; activity change, negative = inhibition: at the top concentration
# Outline: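 Plates of compound plus infected erythrocytes (2% hematocrit, 0.05% parasitemia final) incubate 96 hours, 37 C, 5% CO2. Detection reagent added; reduced luminescence from the parasites' luciferase reporter flags inhibition.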
# % is scaled to controls: 0 for no effect and ±100 for the full control effect; potency is read from the fitted curve at half-maximal effect.
Structure (SMILES),Potency,"activity change, negative = inhibition"
COc1ccc(C(=O)c2c(N)sc3c2CCN(C(=O)OC(C)(C)C)C3)cc1,"inconclusive: 11.7 µM [inhibitor, partial curve, poor fit]",
Cn1nc(C(=O)OCC(=O)Nc2cccc(S(=O)(=O)N3CCCC3)c2)c2ccccc2c1=O,,inactive: -11.9%
COc1ccc(N2CCN(C(=O)CSc3nnnn3C3CC3)CC2)cc1,"inconclusive: 18.5 µM [inhibitor, single point]",
O=C(CNc1cccc(S(=O)(=O)N2CCOCC2)c1)Nc1cccc(Br)c1,active: 9.28 µM,
COc1ccc(C2CC2/C(C)=N/OC(=O)c2ccc(F)cc2)cc1 (stereo not drawn),"inconclusive: 0.208 µM [inhibitor, full curve]",
Clc1ccc(SCc2cn3ccccc3n2)cc1,,inactive: 173%
O=c1[nH]c(NCCO)nc2c1C1(CCCC1)Cc1ccccc1-2,"inconclusive: 14.7 µM [inhibitor, single point]",
O=C1c2ccccc2C(=O)N1CCCCN(C(=O)c1cccc([N+](=O)[O-])c1)c1ccc(Cl)cc1,"inconclusive: 0.0037 µM [inhibitor, full curve, poor fit]",
CN(C)c1ccc(S(=O)(=O)N(C)C)cc1NC(=O)Cc1cccc2ccccc12,"inconclusive: 9.28 µM [inhibitor, partial curve, poor fit]",
CCC1C=CC=CC[C@H](C)[C@@H](O)[C@](C)(O)C(=O)[C@@H](C)[C@H](O)[C@@H](C)C(=O)[C@H](C)[C@@H](O)[C@H](C)C=CC(=O)OC2[C@@H](C)C(CC1)OC1(CC[C@@H](C)C(C[C@H](C)O)O1)[C@@H]2C (stereo partly drawn),active: 0.117 µM,
Cc1ccc(C2Nc3ccccc3C(=O)N2CCN2CCNC2=O)cc1 (stereo not drawn),,inactive: -0.318%
CCN1CCN(c2nc3c(C)cccn3c(=O)c2/C=C(\C#N)S(=O)(=O)c2ccc(C)cc2)CC1,active: 4.15 µM,
COc1ccc(-c2nc(CS(=O)CC(=O)NC3CCCCCC3)c(C)o2)cc1 (stereo not drawn),,inactive: 14.5%
CCc1cc2c(COC(=O)c3c(C)noc3C)cc(=O)oc2cc1O,"inconclusive: 18.5 µM [inhibitor, single point]",
Cn1c(=O)c2c(nc(Cl)n2CCOc2ccccc2)n(C)c1=O,"inconclusive: 6.57 µM [inhibitor, partial curve]",
CCN1CCN(C(=O)CCCn2c(C)c3cnn(-c4ccccc4)c(=O)c3c2C)CC1,active: 2.62 µM,
O=[N+]([O-])c1ccc(CSc2nnc(SCc3ccc(Cl)cc3)s2)cc1,"inconclusive: 18.5 µM [inhibitor, single point]",
COc1ccc(/C=N/NC(=O)c2[nH]c3ccc(Br)cc3c2-c2ccccc2)c(C(=O)O)c1OC,,inactive: 30.6%

# Reformatted bar-delimited: entries from further up
Structure (SMILES) | Potency | activity change, negative = inhibition
CCc1cc2c(COC(=O)c3c(C)noc3C)cc(=O)oc2cc1O | inconclusive: 18.5 µM [inhibitor, single point] | 
Cn1c(=O)c2c(nc(Cl)n2CCOc2ccccc2)n(C)c1=O | inconclusive: 6.57 µM [inhibitor, partial curve] | 
CCN1CCN(C(=O)CCCn2c(C)c3cnn(-c4ccccc4)c(=O)c3c2C)CC1 | active: 2.62 µM | 
O=[N+]([O-])c1ccc(CSc2nnc(SCc3ccc(Cl)cc3)s2)cc1 | inconclusive: 18.5 µM [inhibitor, single point] | 
COc1ccc(/C=N/NC(=O)c2[nH]c3ccc(Br)cc3c2-c2ccccc2)c(C(=O)O)c1OC |  | inactive: 30.6%
